Results deposited as PubChem BioAssay AID1259308 (NCATS, 2017)
The whole screen tested about 59,000 reagents; shown is an unselected part. Over the whole deposit, about 1,510 (2.6%) are marked active. 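Calls use total luciferase alone and ignore viability, so some active siRNAs may act by altering cell number.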 Unmarked entries are inactive. The numbers tell different reagents against one gene apart. Further read-outs or replicates are left out here. Reagent sequences are not shown.

Test: 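Knock-downs that increase output of a recombinant reporter protein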 (primary screen)
Cell system: human HEK293 embryonic kidney cells stably expressing firefly luciferase (HEK-CMV-Luc2-Hygro)
Knock-down reagent: single siRNA against human genes, 0.8 pmol siRNA per well
Time to read-out: 72 h
Detection: 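Reporter luminescence and viable-cell signal on separate replicate plates, given as percent of non-targeting control and median/MAD z-scores, plus per-cell luciferase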
Reading the numbers: total luciferase, z-score and total luciferase, % of control: higher = more reporter protein produced
Active means: 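Active when the median/MAD z-score for overall luciferase is greater than 3; a gene was taken forward for validation with new siRNAs if at least two of its three siRNAs passed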
Calls: active = raised luciferase; inactive = no rise

After knock-down of DHPS (deoxyhypusine synthase) #1, the screen gave total luciferase, z-score 1.01; total luciferase, % of control 102.
Silencing of DHPS (deoxyhypusine synthase) #2 resulted in: total luciferase, z-score -1.05; total luciferase, % of control 61.
After knock-down of DHPS (deoxyhypusine synthase) #3, the screen gave total luciferase, z-score 0.247; total luciferase, % of control 86.8.
With knock-down of KRT76 (keratin 76) #1, the record shows total luciferase, z-score -1.87; total luciferase, % of control 44.8.
Depletion of KRT76 (keratin 76) #2 resulted in: total luciferase, z-score 0.269; total luciferase, % of control 87.2.
With knock-down of KRT76 (keratin 76) #3, the screen gave total luciferase, z-score 0.29; total luciferase, % of control 87.7.
Knock-down of VPS4A (vacuolar protein sorting 4 homolog A) #1 gave: total luciferase, z-score -1.45; total luciferase, % of control 53.
VPS4A (vacuolar protein sorting 4 homolog A) #2 gave total luciferase, z-score -1.53; total luciferase, % of control 51.6.
For VPS4A (vacuolar protein sorting 4 homolog A) #3, the values are total luciferase, z-score -0.719; total luciferase, % of control 67.6.
After knock-down of ABHD17C (abhydrolase domain containing 17C, depalmitoylase) #1 the results were total luciferase, z-score 0.928; total luciferase, % of control 100.
With knock-down of ABHD17C (abhydrolase domain containing 17C, depalmitoylase) #2, the record shows total luciferase, z-score -0.0343; total luciferase, % of control 81.2.
ABHD17C (abhydrolase domain containing 17C, depalmitoylase) #3 scored total luciferase, z-score -0.842; total luciferase, % of control 65.1.
With knock-down of CYP3A7 (cytochrome P450 family 3 subfamily A member 7) #1 the results were total luciferase, z-score 2.28; total luciferase, % of control 127.
With knock-down of CYP3A7 (cytochrome P450 family 3 subfamily A member 7) #2, the screen gave total luciferase, z-score -1.25; total luciferase, % of control 57.
Against CYP3A7 (cytochrome P450 family 3 subfamily A member 7) #3 the deposit lists total luciferase, z-score -0.516; total luciferase, % of control 71.6.
After knock-down of GPATCH4 (G-patch domain containing 4 (gene/pseudogene)) #1, the screen gave total luciferase, z-score -2.11; total luciferase, % of control 40.
GPATCH4 (G-patch domain containing 4 (gene/pseudogene)) #2 scored total luciferase, z-score 0.338; total luciferase, % of control 88.6.
Knock-down of GPATCH4 (G-patch domain containing 4 (gene/pseudogene)) #3 resulted in: total luciferase, z-score 0.475; total luciferase, % of control 91.3.
Knock-down of AKAP12 (A-kinase anchoring protein 12) #1 came out at: total luciferase, z-score 0.195; total luciferase, % of control 85.8.
AKAP12 (A-kinase anchoring protein 12) #2 showed total luciferase, z-score 0.0987; total luciferase, % of control 83.8.
AKAP12 (A-kinase anchoring protein 12) #3 showed total luciferase, z-score 0.217; total luciferase, % of control 86.2.
After knock-down of LRRC75A (leucine rich repeat containing 75A) #1 the results were total luciferase, z-score -2.08; total luciferase, % of control 40.5.
LRRC75A (leucine rich repeat containing 75A) #2 scored total luciferase, z-score -1.93; total luciferase, % of control 43.5.
Knock-down of LRRC75A (leucine rich repeat containing 75A) #3 came out at: total luciferase, z-score 0.306; total luciferase, % of control 88.
SEC61B (SEC61 translocon subunit beta) #1 scored total luciferase, z-score -0.0981; total luciferase, % of control 79.9.
After knock-down of SEC61B (SEC61 translocon subunit beta) #2 the results were total luciferase, z-score -0.776; total luciferase, % of control 66.5.
SEC61B (SEC61 translocon subunit beta) #3 showed total luciferase, z-score -0.578; total luciferase, % of control 70.4.
Knock-down of RALB (RAS like proto-oncogene B) #1 gave: total luciferase, z-score 0.163; total luciferase, % of control 85.1.
Silencing of RALB (RAS like proto-oncogene B) #2 came out at: total luciferase, z-score 0.0863; total luciferase, % of control 83.6.
For RALB (RAS like proto-oncogene B) #3 the deposit lists total luciferase, z-score 0.522; total luciferase, % of control 92.3.
CYP4B1 (cytochrome P450 family 4 subfamily B member 1) #1 scored total luciferase, z-score -1.58; total luciferase, % of control 50.4.
After knock-down of CYP4B1 (cytochrome P450 family 4 subfamily B member 1) #2, the screen gave total luciferase, z-score -0.212; total luciferase, % of control 77.7.
For CYP4B1 (cytochrome P450 family 4 subfamily B member 1) #3 the deposit lists total luciferase, z-score -1.15; total luciferase, % of control 58.9.

Individual results from above.
VPS4A (vacuolar protein sorting 4 homolog A) #3, total luciferase, % of control = 67.6
Under “total luciferase, % of control”, VPS4A (vacuolar protein sorting 4 homolog A) #1 shows 53
